We go through two substances from PMC10289004.

Protein sequences, listed by entry. Tags and fused reporters are not part of them. Lines headed by an entry give the natural chain unless they say otherwise; changes in a name come on top.
UniProt Q13546: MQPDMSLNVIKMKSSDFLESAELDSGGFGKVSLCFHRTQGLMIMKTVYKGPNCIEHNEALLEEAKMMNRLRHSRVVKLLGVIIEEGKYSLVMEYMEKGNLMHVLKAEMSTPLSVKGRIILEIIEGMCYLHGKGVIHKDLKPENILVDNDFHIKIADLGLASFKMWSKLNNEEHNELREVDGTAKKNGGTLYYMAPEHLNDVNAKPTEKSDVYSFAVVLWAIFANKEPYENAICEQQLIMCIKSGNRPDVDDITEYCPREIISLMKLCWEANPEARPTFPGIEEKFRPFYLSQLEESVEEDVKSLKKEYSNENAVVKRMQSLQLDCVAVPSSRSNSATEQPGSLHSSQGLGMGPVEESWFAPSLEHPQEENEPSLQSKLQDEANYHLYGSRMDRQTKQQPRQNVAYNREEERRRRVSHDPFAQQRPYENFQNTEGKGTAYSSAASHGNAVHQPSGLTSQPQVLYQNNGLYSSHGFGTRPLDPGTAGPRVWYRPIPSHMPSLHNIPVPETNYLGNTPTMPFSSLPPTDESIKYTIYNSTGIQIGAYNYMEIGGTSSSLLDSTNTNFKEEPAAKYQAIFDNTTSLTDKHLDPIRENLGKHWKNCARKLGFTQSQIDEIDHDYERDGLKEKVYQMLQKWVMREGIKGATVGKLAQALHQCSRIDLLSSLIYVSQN
UniProt Q9Y572: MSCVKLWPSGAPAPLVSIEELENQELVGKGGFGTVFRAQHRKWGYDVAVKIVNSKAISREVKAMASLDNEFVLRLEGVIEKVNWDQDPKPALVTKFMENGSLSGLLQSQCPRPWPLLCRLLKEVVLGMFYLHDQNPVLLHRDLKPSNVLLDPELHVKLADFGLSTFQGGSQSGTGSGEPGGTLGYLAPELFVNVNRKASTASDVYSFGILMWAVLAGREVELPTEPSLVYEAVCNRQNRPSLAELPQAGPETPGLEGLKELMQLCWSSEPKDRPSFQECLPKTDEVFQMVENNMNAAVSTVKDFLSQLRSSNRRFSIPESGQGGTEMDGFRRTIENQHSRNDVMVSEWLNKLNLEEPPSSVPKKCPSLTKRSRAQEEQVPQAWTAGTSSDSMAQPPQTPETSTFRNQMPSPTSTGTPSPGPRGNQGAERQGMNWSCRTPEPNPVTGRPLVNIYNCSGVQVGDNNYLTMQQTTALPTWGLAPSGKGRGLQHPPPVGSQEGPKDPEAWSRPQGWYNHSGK
UniProt Q9QZL0: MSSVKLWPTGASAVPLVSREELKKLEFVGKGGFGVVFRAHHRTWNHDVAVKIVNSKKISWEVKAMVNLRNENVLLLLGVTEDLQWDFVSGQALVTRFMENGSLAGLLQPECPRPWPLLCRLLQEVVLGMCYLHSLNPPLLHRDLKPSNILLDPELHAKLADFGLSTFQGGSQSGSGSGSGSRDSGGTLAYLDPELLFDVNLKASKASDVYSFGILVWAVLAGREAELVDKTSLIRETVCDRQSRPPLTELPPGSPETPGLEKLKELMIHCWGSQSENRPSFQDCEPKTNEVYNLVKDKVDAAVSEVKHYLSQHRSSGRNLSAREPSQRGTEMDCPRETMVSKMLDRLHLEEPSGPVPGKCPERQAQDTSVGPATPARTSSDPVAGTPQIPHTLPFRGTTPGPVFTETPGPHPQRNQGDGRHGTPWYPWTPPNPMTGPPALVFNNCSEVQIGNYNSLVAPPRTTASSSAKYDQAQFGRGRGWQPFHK

Assay [1] concerns the target HA-RIPK1 wild type (human) (UniProt Q13546). Nature of the assay: co-IP; HEK293 cells co-transfected with HA-RIPK1 (WT or S331A) and FLAG-RIPK3, lysed 24 h later; with or without co-transfected OGT or TMG treatment.
A further assay deals with HA-RIPK1 S331A (human) (UniProt Q13546). The description is as above.
Assay [2] deals with RIPK1 S331A reconstituted in MEF Ripk1-/- cells (human) (UniProt Q13546). Nature of the assay: co-IP; MEF Ripk1-/- cells transfected with RIPK1 WT or S331A for 20-24 h, then 4 h TSZ, lysed; endogenous RIPK3.

These are yes or no findings as the source states them, for the method shown. Binding seen in cells or lysates may run through a third protein. Some binding calls cover weakened binding; strength is not graded here.

For the substance FLAG-RIPK3 (from UniProt Q9Y572 1-518), the binding entry (in assay [1]; with HA-RIPK1 S331A (human)) was “binds” each time.

As to “endogenous RIPK3 in MEF Ripk1-/- cells (from UniProt Q9QZL0 1-486)”, the binding entry in assay [2] was “binds”.
